Results: PubChem BioAssay AID540276 (National Center for Advancing Translational Sciences (NCATS), 2011)
Values joined by “and” are separate entries in the source; they are usually repeats but may differ in a detail not shown here. Identical values can stand only once. Out of some 300,000 compounds screened, about 5,400 (1.8%) were called active. Inconclusive results, whose numbers are uncertain, are shown with a selection of clear calls. The call rests on the fitted dose curve; tested in HEK293 cells. Potencies of inconclusive entries are doubtful fits and often do not repeat.

Test: qHTS for inhibitors of binding or entry into cells for Marburg Virus
Details: Marburg virus pseudotyped entry inhibition, cell reporter; activity change, negative = inhibition: at 37.8 µM (top of the series) unless noted
On the % scale 0 is the no-effect control and ±100 the full control effect; potency means the concentration at half of the fitted maximal effect.

Structure (SMILES) | Potency | activity change, negative = inhibition
O=C(NN=C1CCCCCCC1)c1ccccn1 | inconclusive: 4.11 µM [activator, full curve, poor fit] | –
CCCCc1ccc(-c2ccc(C)cc2O)nc1 | inconclusive: 16.4 µM [inhibitor, partial curve, poor fit] | –
COc1ccc(S(=O)(=O)Nc2ccccc2N2CCOCC2)cc1[N+](=O)[O-] | inactive | –
CCOCc1nnc(NC(=O)c2cc(C(=O)OC)cc([N+](=O)[O-])c2)s1 | inconclusive: 3.55 µM [activator, partial curve, poor fit] | –
OCCNCCCOc1ccc(Cl)cc1Br | active: 20.6 µM | –
Cc1ccc(NC(=O)Cn2c(=O)nc(-c3ccccc3F)c3cc(Cl)ccc32)c(Br)c1 | inactive | –
COc1ccc(-c2coc3cc(O)ccc3c2=O)cc1OC | inactive | –
COc1ccc(S(=O)(=O)N2CCCCCC2)cc1C(=O)N(C)Cc1ccc(Cl)cc1Cl | inconclusive: 12.6 µM [inhibitor, partial curve, poor fit] | –
CC(=O)OC[C@@H]1O[C@H](C/C=N\OC[C@@H](O)[C@H]2O[C@H]3OC(C)(C)O[C@H]3[C@@H]2O)C=C[C@@H]1OC(C)=O | inconclusive: 0.0084 µM [inhibitor, full curve, poor fit] | –
Cc1cc(C)cc(NC(=O)CCNS(=O)(=O)c2ccc3c(c2)oc(=O)n3C)c1 | inactive | –
CSc1nc2ccccc2cc1/C=C(\C#N)c1ccccc1 | inconclusive: 3.55 µM [inhibitor, full curve, poor fit] | –
COc1cc(C(=O)NCCSc2c(-c3ccccc3)[nH]c3ccccc23)cc(OC)c1OC | inconclusive: 35.5 µM [inhibitor, single point] | –
C=CC[C@@H]1C=C[C@@H](O/N=C(/C)CCC(=O)OC[C@@H]2O[C@H](C#Cc3ccccc3)C=C[C@@H]2Oc2ccc(C)cc2)[C@@H](CO)O1 | inactive | –
COc1cc(C(=O)Nc2sc3c(c2C(=O)NCc2ccco2)CCCC3)cc(OC)c1OC | inactive | –
COc1ccc(O[C@H]2C=C[C@@H](c3ccccc3)O[C@@H]2CO/N=C(\C)CCN2CCCCc3nc(C)c(C)cc32)cc1 | inconclusive: 29.1 µM [inhibitor, single point] and inconclusive: 944 nM [activator, full curve] | –
c1ccc(-c2nc(NCCCn3ccnc3)c3ccccc3n2)cc1 | inconclusive: 25.1 µM [inhibitor, single point] | –
Cc1ccc(-c2cc(C(=O)N(C)Cc3cnn(C)c3C)c3cc(Br)ccc3n2)cc1 | active: 8.91 µM | –
CCCCCCCCCOC(=O)C[n+]1csc(CCO)c1C | inconclusive: 6.31 µM [activator, single point] | –
O=C(COC(=O)c1ccc(O)cc1)Nc1cccc(S(=O)(=O)NC2=NCCCCC2)c1 | inactive | –
COc1cccc(Cn2cnc3c(NS(=O)(=O)c4ccc(Cl)cc4)c(C)c(C)cc32)c1 | inconclusive: 18.3 µM [inhibitor, single point] | –
Cc1ccc2nc(C)cc(C(=O)OCC(=O)Nc3cccnc3Cl)c2c1 | inactive | –
O=C(NCc1cccs1)c1cnc(Cl)c(Cl)c1 | inactive | –
O=C(Nc1ncc(Cc2ccc(SC(F)F)cc2)s1)c1ccc(OC(F)F)cc1 | active: 5.62 µM | –
Cc1cc2cc(CN(Cc3ccco3)S(=O)(=O)c3c(C)ccc4nsnc34)c(=O)[nH]c2cc1C | inconclusive: 1.64 µM [inhibitor, full curve, poor fit] | –

Structure (SMILES) | Potency | activity change, negative = inhibition
CC(C)Nc1ncnc2ccc(Br)cc12 | inconclusive: 35.5 µM [inhibitor, single point] | –
CNC(=O)c1ccccc1S(=O)c1ccccc1COC(C)=O (stereo unspecified) | inconclusive: 5.62 µM [activator, single point] | –
O=C(NNC(=O)c1ccccc1O)c1ccc(Cl)cc1 | inactive | –
O=C(NC1CCCC1)C(c1ccncc1)N(C(=O)c1csnn1)c1ccc(F)c(Cl)c1 (stereo unspecified) | inconclusive: 10 µM [inhibitor, partial curve, poor fit] | –
Cc1c(C(=O)NCCN2CCOCC2)oc2ccc(Br)cc12 | inactive | –
CN(CC(O)COc1ccc2ccccc2c1)C1CCCCC1 (stereo unspecified) | inconclusive: 11.2 µM [inhibitor, partial curve] | –
O=c1c2ccccc2c(C=Nc2cccc(S(=O)(=O)NCc3ccco3)c2)c(O)n1-c1ccc(Cl)cn1 | inactive | –
CN(C)CCN(Cc1ccc(Cl)cc1)c1ccccn1 | inconclusive: 29.1 µM [inhibitor, single point] | –
Cc1cc(C(=O)NCc2ccco2)c2ccccc2n1 | inconclusive: 0.631 µM [inhibitor, full curve, poor fit] | –
O=S1(=O)N=C(Nc2cccc(C(F)(F)F)c2)c2ccccc21 | inactive | –
CCCN1CCC(=NNC(=O)c2ccc(Br)o2)CC1 | inactive | –
COC(=O)C1CCN(C(=O)c2cc3ccccc3oc2=O)CC1 | inconclusive: 5.8 µM [activator, full curve, poor fit] | –
CC(C)NS(=O)(=O)c1ccc(OCC(=O)N2CCN(c3ccccc3F)CC2)cc1 | inactive | –
CCCc1c(C)[nH]c2nc3ccccc3n2c1=O | inactive | –
O=C(c1cc(=O)[nH]c2ccccc12)N1CCN(c2ccc([N+](=O)[O-])cc2)CC1 | inconclusive: 17.8 µM [inhibitor, single point] | –
N#CCSc1nc2ccccc2o1 | inconclusive: 0.891 µM [inhibitor, single point] | –
CN1CCN(S(=O)(=O)c2ccc(N3CCN(C(c4ccccc4)c4ccccc4)CC3)nc2)CC1 | inconclusive: 11.2 µM [inhibitor, partial curve, poor fit] | –
COc1ccc(/C=C(\C#N)C(=O)NCCc2ccccc2)cc1OCc1ccccc1 | active: 11.2 µM | –
Cc1ccc2oc(/N=C(\N)NC(=O)C(C)(C)C)nc2c1 | inconclusive: 1.12 µM [inhibitor, full curve, poor fit] | –
Cc1ccccc1CN1CCc2cc([N+](=O)[O-])ccc21 | inconclusive: 8.91 µM [inhibitor, partial curve, poor fit] | –
CC12CCCC(C(C#N)C(N)=O)(C1)NC(=O)C2C#N (stereo unspecified) | – | inconclusive: 43.3% [activator]
Cc1ccccc1C(=O)N1CCCN(C(=O)c2ccccc2C)CC1 | inactive | –
CC(=O)c1cc2c(cc1NS(=O)(=O)c1ccccc1)OCO2 | inactive | –
O=C(O)CCC(=O)Nc1ccc(C(=O)OCC(=O)c2ccc(Cl)cc2Cl)cc1 | inactive | –

Structure (SMILES) | Potency | activity change, negative = inhibition
Cc1ccccc1C1CC(=O)c2ccccc2C1C (stereo unspecified) | inconclusive: 0.891 µM [inhibitor, full curve, poor fit] | –
COc1ccc(CCC(=O)OCC(=O)NC(=O)c2ccc(Cl)cc2)cc1 | inactive | –
COc1ccccc1C(=O)NCCC(=O)N1CC=C(c2ccccc2)CC1 | inactive | –
CCc1cccc2c(C(=O)COC(=O)c3ccc(O)cc3)c[nH]c12 | inactive | –
Cc1ccc(S(=O)(=O)N2CC=C(c3ccc(F)cc3)CC2)cc1 | inconclusive: 1.78 µM [inhibitor, partial curve, poor fit] | –
Cn1c(N2CCC(C(N)=O)CC2)nc2c1c(=O)n(Cc1ccc(Br)cc1)c(=O)n2C | inconclusive: 23.1 µM [activator, partial curve, poor fit] | –
CNc1nc2c(c(=O)n(C)c(=O)n2C)n1Cc1ccccc1 | inconclusive: 1.16 µM [inhibitor, full curve] | –
Cc1ccc(NC(=O)CCNC(=O)c2ccc(Br)cc2)cc1S(=O)(=O)N1CCCCCC1 | inconclusive: 12.6 µM [inhibitor, partial curve, poor fit] | –
Cc1cc(Cl)c(S(=O)(=O)N2CCN(c3cccc(C)c3C)CC2)cc1OCC(N)=O | inconclusive: 9.2 µM [inhibitor, partial curve, poor fit] | –
CCc1c(C(=O)Nc2cc(C)ccc2OC)[nH]c(C)c1C(C)=O | inconclusive: 23.1 µM [inhibitor, single point] | –
Cc1oc2cc3oc(=O)c(CCC(=O)N[C@H](C(=O)O)C(C)C)c(C)c3cc2c1C | inactive | –
CCOC(=O)C1(CCc2ccccc2)CCN(Cc2cccc3cnccc23)CC1 | inconclusive: 1 µM [inhibitor, partial curve, poor fit] | –
CC(C)N(C(=O)CSc1nnc(NC(=O)C2CCC2)s1)C(C)C | inconclusive: 11.2 µM [inhibitor, partial curve, poor fit] | –
Cc1cc(SCC(=O)c2cccs2)n2nc(C)c(-c3ccccc3)c2n1 | inconclusive: 4.61 µM [inhibitor, full curve] | –
COc1ccc(C(=O)NCCS(=O)(=O)N2CCN(Cc3ccccc3)CC2)cc1 | inactive | –
Cc1cc(NC(=O)CN2CCN(S(=O)(=O)c3ccc(Cl)cc3)CC2)no1 | inactive | –
O=C(Nc1ccc2c(c1)CCC2)C1COc2ccccc2O1 (stereo unspecified) | inactive | –
CCc1ccc(N(C(=O)c2csnn2)C(C(=O)NC(C)(C)CC)c2cccnc2)cc1 (stereo unspecified) | inconclusive: 0.891 µM [inhibitor, full curve, poor fit] | –
O=C(O)[C@@H]1CSCN1S(=O)(=O)c1cccc2nsnc12 | inactive | –
Cc1nn2c(N3CCOCC3)cc(C(C)(C)C)nc2c1-c1ccc(Cl)cc1 | inconclusive: 3.55 µM [activator, full curve] | –
CCOC(=O)CNC(=O)Cn1cnc2sc(C)c(S(=O)(=O)N3CCOCC3)c2c1=O | inactive | –
Cc1ccc(CN2CCN(Cc3ccc(-n4cccn4)cc3)CC2CCO)cc1 (stereo unspecified) | inactive | –
CCc1ccc(N2CC(C)Cn3c2nc2c3c(=O)[nH]c(=O)n2C)cc1 (stereo unspecified) | inactive | –
